Values quoted from earlier work in patent publication US4939177A, “Use of avarol for the control of AIDS and ARC” (Merz + Co. GmbH & Co., priority 1986, dated 1990).
At least one compound was matched to its structure with a doubt left.

Test system: superoxide dismutase (SODase)
Details: in vitro and in vivo; cited from earlier work

For `CCN(CC)C(=S)S` [DDC, diethyldithiocarbamate, reference compound], the “inhibition of superoxide dismutase” value is given as “inhibition of superoxide dismutase”.
